{"source": "PubChem BioAssay AID504834", "about": "(National Center for Advancing Translational Sciences (NCATS), 2011)", "note": "The campaign covered roughly 320,000 compounds. About 22,000 (6.9%) were called active. This list was built around the results that the source calls inconclusive (neither active nor inactive); the mix of calls is not that of the screen. Calls follow the shape of the dose curve; as a rule, active = well fitted inhibition curve with a large enough effect; inconclusive = small, poorly fitted or top-dose-only effect, or another doubt; inactive = no such curve, though single readings can be large or run the other way. Potencies beside an inconclusive call are fits to weak or partial responses and may not hold up. % is scaled to controls: 0 for no effect and ±100 for the full control effect; potency is read from the fitted curve at half-maximal effect.", "data": [{"assay": "Primary qHTS for delayed death inhibitors of the malarial parasite plastid, 96 hour incubation", "conditions": "P. falciparum luciferase reporter growth; series mostly up to 28.7 µM; activity change, negative = inhibition: at the top concentration", "outline": "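Two parasite generations (96 h, 37 C, 5% CO2) of compound exposure in infected erythrocytes (0.05% parasitemia, 2% hematocrit). Luciferase-reporter P. falciparum; decreased luminescence indicates inhibited growth, aimed at apicoplast-acting delayed death.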", "values": [{"smiles": "COc1ccccc1N1CCN(/N=C\\c2sccc2C)CC1", "Potency": "inconclusive: 18.5 µM [inhibitor, single point]"}, {"smiles": "O=C(c1ccco1)N(Cc1ccccc1)Cc1ccccn1", "activity change, negative = inhibition": "inactive: 10.7%"}, {"smiles": "COc1ccc(C(=O)n2c(-c3ccco3)nc3ccccc32)cc1", "Potency": "active: 2.08 µM"}, {"smiles": "COc1cccc(CNC(=O)CCn2c(=O)c3cccn3c3cccnc32)c1", "activity change, negative = inhibition": "inactive: 33.5%"}, {"smiles": "Cc1ccc(N2C(=O)[C@@H]3[C@H](C2=O)C2c4ccccc4C=NN2[C@@H]3C(=O)c2ccc(Cl)cc2)cc1", "note": "(some centres undefined)", "Potency": "inconclusive: 10.4 µM [inhibitor, single point]"}, {"smiles": "O=C(CCc1ccccc1)N1CCCC1", "Potency": "inconclusive: 18.5 µM [inhibitor, single point]"}, {"smiles": "Cc1cc(C)n(-c2ncnc3sc4c(c23)CC(C)CC4)n1", "note": "(centres undefined)", "Potency": "inconclusive: 16.5 µM [inhibitor, partial curve, poor fit]"}, {"smiles": "COc1ccc(-c2ccc(C#N)c(SCC(=O)Nc3sc4c(c3C#N)CCC4)n2)cc1", "activity change, negative = inhibition": "inactive: -7.49%"}, {"smiles": "O=C(COc1ccc(F)cc1)NCC1(N2CCOCC2)CCCCC1", "Potency": "inconclusive: 13.1 µM [inhibitor, single point]"}, {"smiles": "COc1ccc(CC2(CO)CCN(Cc3cccc(OC)c3OC)CC2)cc1", "Potency": "inconclusive: 9.28 µM [inhibitor, partial curve, poor fit]"}, {"smiles": "CCN1CCN(c2ccc(S(=O)(=O)N3CCOCC3)cc2NC(=O)C(C)Oc2ccc(F)cc2)CC1", "note": "(centres undefined)", "Potency": "inconclusive: 13.1 µM [inhibitor, partial curve, poor fit]"}, {"smiles": "COc1ccccc1CNC(=O)CSc1ccc(C)cc1", "activity change, negative = inhibition": "inactive: 19.2%"}, {"smiles": "Cc1ccc(-c2nn(-c3ccc(F)cc3)cc2C(=O)NCCCN2CCCC2=O)cc1", "Potency": "inconclusive: 11.7 µM [inhibitor, single point]"}, {"smiles": "O=C(Cn1c(=O)c2ccccc2n(CC(=O)N2CCCCC2)c1=O)N1CCCCC1", "Potency": "inconclusive: 18.5 µM [inhibitor, single point]"}, {"smiles": "COc1ccccc1N1CCN(C(=O)CCc2ccc(S(=O)(=O)NC(C)C)cc2)CC1", "Potency": "inconclusive: 1.47 µM [inhibitor, full curve]"}, {"smiles": "CCN(CC)S(=O)(=O)c1cccc(-c2nnc(SC(C)C#N)n2Cc2ccccc2)c1", "note": "(centres undefined)", "Potency": "inconclusive: 11.7 µM [inhibitor, partial curve, poor fit]"}, {"smiles": "Cc1cccc(OCC(=O)Nc2nccs2)c1C", "Potency": "inconclusive: 13.1 µM [inhibitor, single point]"}, {"smiles": "CNC(=S)NCCc1c[nH]c2ccc(OC)cc12", "Potency": "inconclusive: 16.5 µM [inhibitor, single point]"}, {"smiles": "CC1=CC(=O)N(c2ccc(C)cc2)C1c1ccc(Cl)cc1", "note": "(centres undefined)", "Potency": "inconclusive: 0.0738 µM [inhibitor, full curve, poor fit]"}, {"smiles": "O=C(O)c1cc(-c2ccc(Br)s2)nc2ccccc12", "Potency": "inconclusive: 1.04 µM [inhibitor, full curve]"}, {"smiles": "O=C(Nc1cccc(S(=O)(=O)N2CCCCC2)c1)c1ccc(OCC2CCCO2)cc1", "note": "(centres undefined)", "Potency": "inconclusive: 16.5 µM [inhibitor, single point]"}, {"smiles": "O=C(NCc1ccco1)c1cc(-c2ccncc2)nc2ccccc12", "Potency": "inconclusive: 11.7 µM [inhibitor, single point]"}, {"smiles": "Cc1ccc(C[C@H](C(=O)O)N2C(=O)c3ccc(C(=O)O)cc3C2=O)c(C)c1", "activity change, negative = inhibition": "inactive: 12.7%"}, {"smiles": "COc1cccc(-c2cc(C(F)(F)F)n3nc(C(=O)N4CCCCC4c4cccnc4)cc3n2)c1", "note": "(centres undefined)", "Potency": "inconclusive: 4.15 µM [inhibitor, single point]"}, {"smiles": "O=C(CSc1ccc(Cl)cc1)NNC(=O)c1ccco1", "Potency": "active: 14.7 µM"}, {"smiles": "Cc1c(-c2nc3ccccc3[nH]2)cnn1C", "activity change, negative = inhibition": "inactive: 79.5%"}, {"smiles": "Cc1cc(CCC(=O)O)c(C)cc1CCC(=O)O", "Potency": "inconclusive: 18.5 µM [inhibitor, single point]"}, {"smiles": "COCCCn1c2nc3ccccc3nc2c2c(=O)n(CC3CCCO3)cnc21", "note": "(centres undefined)", "Potency": "inconclusive: 18.5 µM [inhibitor, single point]"}, {"smiles": "CC(CCc1ccccc1)NC(=O)c1ccc(F)cc1", "note": "(centres undefined)", "Potency": "inconclusive: 13.1 µM [inhibitor, partial curve, poor fit]"}, {"smiles": "Cc1cc(C(=O)N2CCN(c3ccccc3O)CC2)c(C)o1", "Potency": "inconclusive: 18.5 µM [inhibitor, single point]"}, {"smiles": "COc1ccc(C=O)cc1OC(=O)C1(C)Cc2ccccc2C(=O)O1", "note": "(centres undefined)", "activity change, negative = inhibition": "inactive: -5.29%"}, {"smiles": "Nc1oc2ccc(F)cc2c(=O)c1C=O", "activity change, negative = inhibition": "inactive: 31.6%"}, {"smiles": "C(=N\\Nc1nc(N2CCOCC2)nc(N2CCOCC2)n1)/c1ccncc1", "Potency": "inconclusive: 6.57 µM [inhibitor, partial curve, poor fit]"}, {"smiles": "COc1ccc2sc(C)nc2c1NC(C)=O", "Potency": "inconclusive: 8.28 µM [inhibitor, partial curve, poor fit]"}, {"smiles": "Cn1nc(OCc2ccccc2)ccc1=O", "Potency": "inconclusive: 4.15 µM [inhibitor, single point]"}, {"smiles": "CSc1nc(C)cc(OCCO)n1", "Potency": "inconclusive: 0.0928 µM [inhibitor, full curve, poor fit]"}, {"smiles": "COc1ccc(N(CC(=O)Nc2cc(Cl)ccc2OC)C2=NC3CS(=O)(=O)CC3S2)cc1", "note": "(centres undefined)", "Potency": "inconclusive: 11.7 µM [inhibitor, single point]"}, {"smiles": "Cc1nn(CC(=O)NC(C)c2ccccc2)c(C)c1[N+](=O)[O-]", "note": "(centres undefined)", "Potency": "inconclusive: 10.4 µM [inhibitor, single point]"}, {"smiles": "Cc1c(NC(=S)NC(NC(=O)CC(C)C)C(Cl)(Cl)Cl)c(=O)n(-c2ccccc2)n1C", "note": "(centres undefined)", "Potency": "inconclusive: 11.7 µM [inhibitor, single point]"}, {"smiles": "O=C(c1cc(Sc2cccc(Cl)c2)nc2ccccc12)N1CCN(c2ccccn2)CC1", "Potency": "inconclusive: 9.28 µM [inhibitor, single point]"}, {"smiles": "Cc1ccc(CSc2nccc(-c3c(C)nc4ccccn34)n2)cc1", "Potency": "inconclusive: 10.4 µM [inhibitor, single point]"}, {"smiles": "C1CCCN(C2CCNCC2)CC1", "Potency": "inconclusive: 11.7 µM [inhibitor, partial curve, poor fit]"}, {"smiles": "CN(c1ccccc1)c1ccc(/C=C(\\C#N)c2nnc3n2CCCCC3)cc1[N+](=O)[O-]", "Potency": "inconclusive: 18.5 µM [inhibitor, single point]"}, {"smiles": "CCN(CC)c1ccc2cc(C(N)=O)c(=O)oc2c1", "Potency": "active: 10.4 µM"}, {"smiles": "COc1ccc(OC)c(/C(O)=C/C(=O)C(=O)Nc2ccccc2OC)c1", "Potency": "active: 14.7 µM"}, {"smiles": "Cc1ccc(-c2nc(CN3CCCCC3c3cccc(F)c3)c(C)o2)o1", "note": "(centres undefined)", "activity change, negative = inhibition": "inactive: -13%"}, {"smiles": "Cc1ccc(S(=O)(=O)N2CCCN(S(=O)(=O)c3ccc(C)cc3)CC2)cc1", "Potency": "inconclusive: 10.4 µM [inhibitor, single point]"}, {"smiles": "COc1ccc(C)cc1S(=O)(=O)N(C)CC(=O)NCc1ccccn1", "Potency": "inconclusive: 0.738 µM [inhibitor, full curve, poor fit]"}, {"smiles": "CC(C(=O)c1ccc(-c2ccccc2)cc1)[n+]1cccc(NC(=O)c2ccccc2)c1", "note": "(centres undefined)", "activity change, negative = inhibition": "inactive: -50.8%"}, {"smiles": "Cc1ccccc1NC(=O)NCCCN1CCN(C2CCCCC2)CC1", "activity change, negative = inhibition": "inactive: 2.71%"}, {"smiles": "CCO[C@H]1OC(C(=O)N2CCN(C)CC2)=C[C@@H](c2csc3ccccc23)[C@@H]1CCCO", "Potency": "inconclusive: 9.28 µM [inhibitor, single point]"}, {"smiles": "O=C(c1cc2cc(Cl)ccc2oc1=O)N1CCCCCCC1", "Potency": "inconclusive: 1.04 µM [inhibitor, partial curve, poor fit]"}, {"smiles": "COc1ccc(OC)c(NC(=O)Cc2coc3cc(C)cc(C)c23)c1", "activity change, negative = inhibition": "inactive: 57.6%"}, {"smiles": "c1ccc(-c2csc(=Nc3cccnc3)n2CC2CCCO2)cc1", "note": "(centres undefined)", "Potency": "inconclusive: 18.5 µM [inhibitor, single point]"}, {"smiles": "CC(C)=C(NC(=O)c1ccccc1)C(=O)NC(Cc1ccccc1)C(=O)O", "note": "(centres undefined)", "activity change, negative = inhibition": "inactive: -15.7%"}, {"smiles": "S=C(NC1CC1)NC1CCCc2ccccc21", "note": "(centres undefined)", "Potency": "inconclusive: 14.7 µM [inhibitor, partial curve, poor fit]"}, {"smiles": "COc1ccc2[nH]c(C)c(CCNC(=S)Nc3ccc(F)cc3)c2c1", "Potency": "inconclusive: 16.5 µM [inhibitor, single point]"}, {"smiles": "CCC(C(=O)OCC(=O)c1c(N)n(CC(C)C)c(=O)n(C)c1=O)c1ccccc1", "note": "(centres undefined)", "Potency": "inconclusive: 18.5 µM [inhibitor, single point]"}, {"smiles": "CCOc1cc(C2C(C(=O)c3ccco3)=C(O)C(=O)N2CC2CCCO2)ccc1O", "note": "(centres undefined)", "activity change, negative = inhibition": "inactive: 31%"}, {"smiles": "O=C(NCc1ccc(-c2csnn2)cc1)C1CC1", "activity change, negative = inhibition": "inactive: 18.6%"}, {"smiles": "Cc1ccc(S(=O)(=O)NCC(=O)N(CC(=O)NC2CCCCC2)Cc2ccco2)cc1", "Potency": "inconclusive: 14.7 µM [inhibitor, partial curve]"}, {"smiles": "COc1ccc(Br)cc1/C=C(\\C(=O)O)c1ccc(S(=O)(=O)N2CCCCC2)s1", "activity change, negative = inhibition": "inactive: 0.269%"}, {"smiles": "COC(=O)c1sc(=S)n(-c2ccccc2OC)c1N", "Potency": "inconclusive: 0.0059 µM [inhibitor, full curve, poor fit]"}, {"smiles": "CCOC(=O)CNC(=S)N(CCCN1CCCC1)Cc1cccs1", "Potency": "inconclusive: 4.65 µM [inhibitor, full curve, poor fit]"}, {"smiles": "Cc1ccc(/C=C2\\SC(=S)N(/N=C/c3cc([N+](=O)[O-])ccc3O)C2=O)o1", "Potency": "inconclusive: 18.5 µM [inhibitor, single point]"}, {"smiles": "COc1ccc(N(C)C(=O)c2oc(=O)c3ccccc3c2-c2ccc(C)cc2)c(OC)c1", "Potency": "inconclusive: 8.28 µM [inhibitor, partial curve]"}, {"smiles": "COc1ccc(CCN2CC(C(=O)N(C)Cc3c(C)n[nH]c3C)CCC2=O)cc1", "note": "(centres undefined)", "Potency": "inconclusive: 8.28 µM [inhibitor, single point]"}, {"smiles": "CCOCCCNC(=O)c1ccccc1NC(=O)C1=C(C)OCCS1", "activity change, negative = inhibition": "inactive: 0%"}, {"smiles": "Nc1c(-c2ccccc2)cnn1-c1ccc(C(=O)O)cc1", "activity change, negative = inhibition": "inactive: 173%"}]}]}
